In article PMC3741160:
These are yes or no findings as the source states them, for the method shown. In cells and extracts the contact can be indirect. Some entries that bind do so weakly or less than the wild type.

Target: T1, adipose triglyceride lipase (mouse (endogenous in mouse liver)) (UniProt Q8BJ56)
T1 sequence: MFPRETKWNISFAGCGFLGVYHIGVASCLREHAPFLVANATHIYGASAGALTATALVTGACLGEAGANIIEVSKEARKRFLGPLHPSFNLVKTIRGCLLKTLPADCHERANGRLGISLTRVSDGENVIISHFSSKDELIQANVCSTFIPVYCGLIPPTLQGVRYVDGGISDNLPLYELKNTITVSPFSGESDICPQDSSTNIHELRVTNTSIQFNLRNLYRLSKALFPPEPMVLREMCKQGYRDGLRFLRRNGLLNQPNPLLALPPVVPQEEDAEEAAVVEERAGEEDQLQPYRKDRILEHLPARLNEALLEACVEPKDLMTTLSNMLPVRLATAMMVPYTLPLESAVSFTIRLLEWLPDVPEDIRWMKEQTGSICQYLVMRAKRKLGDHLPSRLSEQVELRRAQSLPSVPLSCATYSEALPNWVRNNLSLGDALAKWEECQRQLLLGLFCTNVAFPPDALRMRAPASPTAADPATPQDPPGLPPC
Assay: co-IP; 300 µg total protein extract from livers of mice injected with Ad-G0S2 (4 days); immunoprecipitated with anti-ATGL antibody or pre-immune IgG on Dynabeads; western blot with anti-G0S2

B1: G0/G1 switch gene 2 (protein, UniProt P27469 1-103)
chain: METVQELIPLAKEMMAQKRKGKMVKLYVLGSVLALFGVVLGLMETVCSPFTAARRLRDQEAAVAELQAALERQALQKQALQEKGKQQDTVLGGRALSNRQHAS
- binding: binds
